From paper PMC7349982
No constants are given. Whether binding was seen depends on the method and setting. For some assays here: Binding seen in cells or lysates may run through a third protein. Some results given as binding are weak or reduced against the parent protein; the word gives no strength. Where a sequence is shown, tags or fusion partners need not be part of it.

T1: SpoIIE (bacterial two-hybrid fusion) (Bacillus subtilis) (UniProt P37475)
T1 sequence: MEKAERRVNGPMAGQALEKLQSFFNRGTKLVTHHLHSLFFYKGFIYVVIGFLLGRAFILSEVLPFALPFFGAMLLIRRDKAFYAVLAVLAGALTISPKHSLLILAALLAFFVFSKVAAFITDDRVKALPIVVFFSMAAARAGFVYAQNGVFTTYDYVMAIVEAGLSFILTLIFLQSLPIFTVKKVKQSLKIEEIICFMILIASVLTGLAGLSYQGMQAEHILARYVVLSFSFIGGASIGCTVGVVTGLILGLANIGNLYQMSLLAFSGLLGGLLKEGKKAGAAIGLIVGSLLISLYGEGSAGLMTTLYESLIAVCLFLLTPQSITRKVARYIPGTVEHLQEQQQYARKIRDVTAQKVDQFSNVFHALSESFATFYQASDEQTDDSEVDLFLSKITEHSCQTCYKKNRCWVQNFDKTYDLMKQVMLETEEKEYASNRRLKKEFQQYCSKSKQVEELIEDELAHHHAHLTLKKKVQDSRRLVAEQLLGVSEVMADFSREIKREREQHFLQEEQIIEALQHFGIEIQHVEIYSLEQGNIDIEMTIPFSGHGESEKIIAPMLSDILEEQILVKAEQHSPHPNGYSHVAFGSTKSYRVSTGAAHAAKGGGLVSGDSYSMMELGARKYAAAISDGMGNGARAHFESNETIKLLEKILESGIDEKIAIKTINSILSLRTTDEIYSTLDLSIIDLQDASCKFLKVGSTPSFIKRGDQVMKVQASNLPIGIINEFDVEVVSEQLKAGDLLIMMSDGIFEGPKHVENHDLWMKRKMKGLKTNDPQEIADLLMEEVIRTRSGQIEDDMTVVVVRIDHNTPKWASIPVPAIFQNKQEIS

T2: His-tagged GpsB (Bacillus subtilis) (UniProt P0CI74)
T2 sequence: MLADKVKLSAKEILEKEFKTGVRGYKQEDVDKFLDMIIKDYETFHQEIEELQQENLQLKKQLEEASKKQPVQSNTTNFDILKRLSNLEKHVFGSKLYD

B1: EzrA (bacterial two-hybrid fusion) (protein, UniProt O34894 1-562)
chain: MEFVIGLLIVLLALFAAGYFFRKKIYAEIDRLESWKIEILNRSIVEEMSKIKHLKMTGQTEEFFEKWREEWDEIVTAHMPKVEELLYDAEENADKYRFKKANQVLVHIDDLLTAAESSIEKILREISDLVTSEEKSREEIEQVRERYSKSRKNLLAYSHLYGELYDSLEKDLDEIWSGIKQFEEETEGGNYITARKVLLEQDRNLERLQSYIDDVPKLLADCKQTVPGQIAKLKDGYGEMKEKGYKLEHIQLDKELENLSNQLKRAEHVLMTELDIDEASAILQLIDENIQSVYQQLEGEVEAGQSVLSKMPELIIAYDKLKEEKEHTKAETELVKESYRLTAGELGKQQAFEKRLDEIGKLLSSVKDKLDAEHVAYSLLVEEVASIEKQIEEVKKEHAEYRENLQALRKEELQARETLSNLKKTISETARLLKTSNIPGIPSHIQEMLENAHHHIQETVNQLNELPLNMEEAGAHLKQAEDIVNRASRESEELVEQVILIEKIIQFGNRFRSQNHILSEQLKEAERRFYAFDYDDSYEIAAAAVEKAAPGAVEKIKADISA
B2: PBP1 (bacterial two-hybrid fusion) (protein, UniProt P39793 1-914)
chain: MSDQFNSREARRKANSKSSPSPKKGKKRKKGGLFKKTLFTLLILFVLGVVGGAVTFAVMVSDAPSLDESKLKTPYSSTIYDKNGKEIAEVGAEKRTYVSIDEIPDVVKEAFIATEDARFYEHHGIDPVRIGGALVANFKDGFGAEGGSTITQQVVKNSLLSHQKTLKRKVQEVWLSIQLERNYSKDEILEMYLNRIYFSPRAYGIGKAAEEFFGVTDLSKLTVEQAATLAGMPQSPTAYNPVKNPDKAEKRRNIVLSLMKKQGFISDSQYNKAKKVAVKDEGVVSQKEYEKASTNKYSAFVEEVMKEIDEKSDVDPSADGLKIYTTLDTKAQDKLDELMDGDTVGFTEGMQGGVTLLDTKNGEVRAIGAGRNQPVGGFNYATQTKAQPGSTIKPILDYGPVIENKKWSTYEQIDDSAYTYSNGKPIRDWDRKYLGPISMRYALAQSRNIPALKAFQAVGKDTAVDFANGLGLGLTKDNVTEAYSIGGFGGNDGVSPLTMAGAYSAFGNNGTYNEPHFVKSIEFNDGTKLDLTPKSKSAMSDYTAFMITDMLKTAVKTGTGQLAQVPGVEVAGKTGTTNFDDNEVKRYNIASGGARDSWFVGYTPQYTAAVWTGMGENEAGKKSLSAEEQKVAKRIFAQLIADVDDGSGSFEKPDSVVEATVEKGSNPAKLAGPNTPSDKKLTEYFVKGTAPSTVSKTYEKEEKEETAKLSGLNVKYDKDNQSLTLSWNYDGDATFAVKQSVDGGSYSEIQNSSAKEAVISGVQPGSVYKFEVTAVSDDGKSTASTSYEVPKAEDDEDKKDQQQTDDEKQDDEKTQDDTQTDDSQKDDGQTDQDQTDDSTNDQDKKQDNTNTNPSDNNNQDQSNDNDNDNSNNQDTSDGDSNSGKNDSTGSDTNKNKTDTSNKTQTNSSSIEKTN
B3: PBP4b (bacterial two-hybrid fusion) (protein, UniProt O32032 1-584)
chain: MKISKRMKLAVIAFLIVFFLLLLRLAEIQLFFTESFSKKKINLIQESVKQRTEEVLISDGRGSFLDRNGRALTGQSEPAVVLFPFLLTQDWPIKKVADILGMSEDDLRQTLGQAKKPVILQQKKIKTLSKQSITKINSLKYPGIYGVYMENEDKPSLASHTIGSTNQDPALLRKKYPDKESLPITTEIGTTGLERTFDEFLLPEQDTKLLYHVDGKGNPLFGMDVKYTAEANTFYPLQIKTTIDQSIQKAMEEVLDEQGLKKGGAVLLDIENSSVLGIVSKPDADVSRQNTLQNYMLTPIYPGSVFKTVIAAAAIENNMVKPSQTFNCNLNLYGEPGDDKGTLSFDESFAQSCNYTFTSLAEQLMKKDSSVIEDMSEKLALTDRAGWEGKLYHETDFRQLYNEKSGVIWGDEKDKSVKKAIAQTAIGQKNVKVTPLEVANMMATIARGGEKRQVKIAEQIEYKNGTTLVTFKDQKLKGETIDKYTSQQLQKILRRVVESPSGTGRRFQDLPYTVAGKSGTAQTGKLSKEKETLYEKWFAGYFPADKPKYALVVLHMDTPGDKALTNSVFYDIVKKVHEIEINQK
B4: GpsB (bacterial two-hybrid fusion) (protein, UniProt P0CI74 1-98)
chain: T2 sequence
B5: cyt-SpoIIE-S (SpoIIE-S domain II+III) (domain or fragment, UniProt P37475 332-827)
chain: IPGTVEHLQEQQQYARKIRDVTAQKVDQFSNVFHALSESFATFYQASDEQTDDSEVDLFLSKITEHSCQTCYKKNRCWVQNFDKTYDLMKQVMLETEEKEYASNRRLKKEFQQYCSKSKQVEELIEDELAHHHAHLTLKKKVQDSRRLVAEQLLGVSEVMADFSREIKREREQHFLQEEQIIEALQHFGIEIQHVEIYSLEQGNIDIEMTIPFSGHGESEKIIAPMLSDILEEQILVKAEQHSPHPNGYSHVAFGSTKSYRVSTGAAHAAKGGGLVSGDSYSMMELGARKYAAAISDGMGNGARAHFESNETIKLLEKILESGIDEKIAIKTINSILSLRTTDEIYSTLDLSIIDLQDASCKFLKVGSTPSFIKRGDQVMKVQASNLPIGIINEFDVEVVSEQLKAGDLLIMMSDGIFEGPKHVENHDLWMKRKMKGLKTNDPQEIADLLMEEVIRTRSGQIEDDMTVVVVRIDHNTPKWASIPVPAIFQNKQEIS

What was measured:
[1] = molecular target: T1, SpoIIE (bacterial two-hybrid fusion) (Bacillus subtilis); experiment: two-hybrid; bacterial two-hybrid (BACTH): fusions to adenylate cyclase fragments T18 and T25 co-transformed into E. coli BTH101 (Δcya); spotted on LB plates with X-Gal and 0.5 mM IPTG, 24-48 h at 30 °C; blue colour and β-galactosidase activity (Miller units)
[2] = molecular target: T2, His-tagged GpsB (Bacillus subtilis); experiment: pull-down; His-GpsB held on a 1 mL Ni Sepharose HP column from E. coli BL21 (DE3) lysate (20 mM Tris-HCl pH 8.0, 150 mM NaCl); eluted with 1 M imidazole; cyt-SpoIIE-S detected by Western blot with an anti-S-tag antibody

Row | Binder | binding [1] | binding [2]
1 | B1 | binds | 
2 | B2 | binds | 
3 | B3 | binds | 
4 | B4 | binds | 
5 | B5 |  | binds
